# Experimental data taken from the supplement of paper PMC8104966.
# This is one part of the list. Repeats in this data set agree poorly, so a single value says little.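 Fusion between ACE2-bearing and full-length-spike-bearing U2OS cells was measured by imaging as the percentage of nuclei with both cell types' fluorescent markers. An inhibitory hit is a non-toxic compound whose fusion z-score is below -3, more than three standard deviations beneath the plate's DMSO wells.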
# Tested on: U2OS ACE2 x SARS-CoV-2 spike co-culture
# Assay: cell-cell fusion (fraction fused) z-score vs plate DMSO control; higher = more fusion
# Conditions: 30 µM; 5 h; toxicity class: non-toxic, passed QC
row,Compound,cell-cell fusion (z-score)
1,NCCCS(=O)(=O)O,inactive: 0.908
2,COc1ccc2c(Oc3ccc(NC(=O)c4c(C)n(CC(C)(C)O)n(-c5ccccc5)c4=O)nc3)ccnc2c1,inactive: 0.772
3,COc1ccc2[nH]cc(CCN)c2c1.Cl [O-Methylserotonin hydrochloride],inactive: 1.91
4,CN(C)C(=O)C(CCN1CCC(O)(c2ccc(Cl)cc2)CC1)(c1ccccc1)c1ccccc1.Cl,inactive: 1.07
5,CN(C)C(=O)C(CCN1CCC(O)(c2ccc(Cl)cc2)CC1)(c1ccccc1)c1ccccc1.Cl [Loperamide hydrochloride],inactive: 1.82
6,Cc1ncc(CO)c(CO)c1O.Cl [Pyridoxine hydrochloride],inactive: 0.0577
7,O=C1C=CC(=C(c2ccc(O)cc2)c2ccc(O)cc2)C=C1,inactive: 3.22
8,CC(C)C[C@H](NC(=O)CNC(=O)c1cc(Cl)ccc1Cl)B(O)O,inactive: 1.62
9,C[C@](N)(Cc1ccc(O)cc1)C(=O)O [L-alpha-Methyl-p-tyrosine],inactive: 2.47
10,C[C@](N)(Cc1ccc(O)cc1)C(=O)O [alpha-METHYL-L-TYROSINE],inactive: 2.22
11,CC1=C(C(=O)O)N2C(=O)[C@@H](NC(=O)[C@H](N)c3ccc(O)cc3)[C@H]2SC1 [Cefadroxil],inactive: 1.04
12,Nc1nc(Nc2ccc(S(N)(=O)=O)cc2)nn1C(=O)c1c(F)cccc1F,inactive: 2.85
13,O=c1c(-c2ccc(O)cc2)coc2c(C3O[C@H](CO)[C@@H](O)[C@H](O)[C@H]3O)c(O)ccc12 (stereo partly drawn),inactive: 3.08
14,O=C(O)C1CN(CCCP(=O)(O)O)CCN1 (racemic),inactive: 2.82
15,CC(C)C[C@H](N)C(=O)N[C@@H](C)C(=O)O,inactive: 2.63
16,CCCCc1nc(Cl)c(CO)n1Cc1ccc(-c2ccccc2-c2nnn[n-]2)cc1.[K+] [Losartan potassium],inactive: 3.21
17,NC(=O)c1ncn([C@@H]2O[C@H](CO)[C@@H](O)[C@H]2O)n1 [Ribavirin],inactive: -0.721
18,C=C1C[C@]23C[C@@]1(O)CC[C@H]2[C@@]12C=C[C@H](O)[C@](C)(C(=O)O1)[C@H]2[C@@H]3C(=O)O,inactive: 1.44
19,CN(C/C=C/C#CC(C)(C)C)Cc1cccc2ccccc12 [Terbinafine],inactive: 3.04
20,C=CCc1cccc(/C=N/NC(=O)CN2CCN(Cc3ccccc3)CC2)c1O,inactive: 1.44
21,COc1cccc2c1[C@@H]1CN(CCCCn3c(=O)[nH]c4c(sc5ncc(-c6ccccc6)nc54)c3=O)C[C@@H]1CO2.Cl [Fiduxosin hydrochloride],inactive: -1.86

row,Compound,cell-cell fusion (z-score)
1,CCCC(CCC)C(=O)O [Valproic Acid],inactive: 3.09
2,CC[C@H]1OC(=O)[C@H](C)[C@@H](O[C@H]2C[C@@](C)(OC)[C@@H](O)[C@H](C)O2)[C@H](C)[C@@H](O[C@@H]2O[C@H](C)C[C@H](N(C)C)[C@H]2O)[C@](C)(O)C[C@@H](C)CN[C@H](C)[C@@H](O)[C@]1(C)O [Azathramycin],inactive: 1.99
3,NNC(=O)c1ccc(O)cc1 [4-Hydroxybenzhydrazide],inactive: 2.72
4,COc1ccc(-c2cc(=O)c3c(O)cc(O[C@@H]4O[C@H](CO[C@@H]5O[C@@H](C)[C@H](O)[C@@H](O)[C@H]5O)[C@@H](O)[C@H](O)[C@H]4O)cc3o2)cc1O,inactive: 2.04
5,CCN(CC)C(=O)C1(c2ccccc2)CC1CN.Cl (stereo not drawn),inactive: 2.11
6,NC(C(=O)N[C@@H]1C(=O)N2C(C(=O)O)=C(Cl)CS[C@H]12)c1ccccc1 (stereo partly drawn) [Cefaclor],inactive: 2.77
7,O=[N+]([O-])c1cn2c(n1)OC[C@@H](OCc1ccc(OC(F)(F)F)cc1)C2 [Pretomanid],inactive: 0.52
8,COc1ccc(-c2c(O)c3c(OC)c4c(cc3oc2=O)OC(C)(C)C=C4)cc1,inactive: 1.23
9,CC1(C)S[C@@H]2[C@H](NC(=O)[C@H](NC(=O)N3CCNC3=O)c3ccccc3)C(=O)N2[C@H]1C(=O)[O-].[Na+] [Azlocillin sodium],inactive: 1.91
10,CC(=O)NC[C@H]1CN(c2ccc(N3CCOCC3)c(F)c2)C(=O)O1 [Linezolid],inactive: 4.1
11,C=NC(C(=O)NC1C(=O)N2C1SC(C)(C)C2C(=O)[O-])c1ccccc1.[Na+] (stereo not drawn),inactive: 1.3
12,COc1ccc2c(O[C@@H]3C[C@H]4C(=O)N[C@]5(C(=O)NS(=O)(=O)C6CC6)C[C@H]5/C=C\CCCCN(C)C(=O)[C@@H]4C3)cc(-c3nc(C(C)C)cs3)nc2c1C [Simeprevir],inactive: 1.91
13,C=C[C@@](C)(O)CCC1C(=C)C[C@H](O)C2C(C)(C)CCCC12C (stereo partly drawn),inactive: 0.85
14,CC(=O)O[C@]12CO[C@@H]1C[C@H](O)[C@]1(C)C(=O)[C@H](O)C3=C(C)[C@H](OC(=O)[C@H](O)[C@@H](NC(=O)OC(C)(C)C)c4ccccc4)C[C@](O)([C@H](OC(=O)c4ccccc4)C21)C3(C)C (stereo partly drawn) [Docetaxel (Taxotere)],inactive: 2.04
15,O=C1CN(/N=C/c2ccc([N+](=O)[O-])o2)C(=O)N1 [Nitrofurantoin],inactive: 2.39
16,CC(=O)O[C@]1(C(C)=O)CCC2C3C=C(Cl)C4=CC(=O)[C@@H]5C[C@@H]5[C@]4(C)C3CC[C@@]21C (stereo partly drawn),inactive: 1.5
17,C[C@@H]1CC(Cl)CC[C@H]1C(=O)OC(C)(C)C (stereo partly drawn),inactive: 2.28
18,O=c1c(O)c(-c2ccc(O)c(O)c2)oc2c(O[C@@H]3O[C@H](CO)[C@H](O)[C@@H](O)[C@H]3O)c(O)cc(O)c12,inactive: 1.37
19,N[C@@H](Cn1oc(=O)[nH]c1=O)C(=O)O [(+)-Quisqualic acid],inactive: -0.11
20,OC[C@H]1O[C@@H](O[C@@H]2[C@@H](CO)OC(O)(CO)[C@H]2O)[C@H](O)[C@@H](O)[C@H]1O (stereo partly drawn) [Lactulose],inactive: 3.16
21,COc1cc(-c2coc3cc(O)c(OC)c(O)c3c2=O)cc(O)c1OC,inactive: 1.61

# Another view of some results above.
row	Compound	cell-cell fusion (z-score)
1	CCCC(CCC)C(=O)O [Valproic Acid]	inactive: 3.09
2	CC[C@H]1OC(=O)[C@H](C)[C@@H](O[C@H]2C[C@@](C)(OC)[C@@H](O)[C@H](C)O2)[C@H](C)[C@@H](O[C@@H]2O[C@H](C)C[C@H](N(C)C)[C@H]2O)[C@](C)(O)C[C@@H](C)CN[C@H](C)[C@@H](O)[C@]1(C)O [Azathramycin]	inactive: 1.99
3	NNC(=O)c1ccc(O)cc1 [4-Hydroxybenzhydrazide]	inactive: 2.72

# The results go on:

row,Compound,cell-cell fusion (z-score)
1,O=C([O-])c1cc(/N=N/c2ccc(O)c(C(=O)[O-])c2)ccc1O.[Na+].[Na+] [Olsalazine disodium],inactive: 2.62
2,C=C1CC[C@H](O)C/C1=C/C=C1\CCC[C@]2(C)[C@@H]([C@H](C)/C=C/[C@H](C)C(C)C)CC[C@@H]12 [Vitamin D2],inactive: -1.8
3,COc1cc(CNC(=O)CCCC/C=C\C(C)C)ccc1O [Zucapsaicin],inactive: 2.23
4,C[C@@H](O[C@H]1OCCN(Cc2nc(=O)[nH][nH]2)[C@H]1c1ccc(F)cc1)c1cc(C(F)(F)F)cc(C(F)(F)F)c1 [Aprepitant],active: -11.3
5,Nc1nc(=O)c2c([nH]1)NC[C@H](CNc1ccc(C(=O)N[C@@H](CCC(=O)[O-])C(=O)[O-])cc1)N2C=O.[Ca+2] [Calcium Levofolinate],inactive: 2.4
6,Br.Oc1cc2c(c(Cl)c1O)CCNCC2c1ccccc1 (racemic) [(±)-6-Chloro-PB hydrobromide],active: -9.67
7,CO/N=C(\C(=O)N[C@@H]1C(=O)N2C(C(=O)[O-])=C(COC(C)=O)CS[C@H]12)c1csc(N)n1.[Na+] [Cefotaxime sodium],inactive: 1.81
8,CC(=O)N[C@@H](CC(=O)O)C(=O)O,inactive: 2.25
9,O=C1C(O)=C(O)C(=O)C(O)=C1O,inactive: 1.72
10,CC1(C)O[C@@H]2[C@@H](CO[C@@]3(COS(N)(=O)=O)OC(C)(C)O[C@@H]23)O1 [Topiramate],inactive: 2.77
11,CN(C)CCC(c1ccc(Br)cc1)c1ccccn1.O=C(O)/C=C\C(=O)O (stereo not drawn) [Brompheniramine hydrogen maleate],inactive: 2.74
12,COc1ccc(CCN(C)CCc2ccc(OC)c(OC)c2)cc1OC.Cl [YS-035 hydrochloride],inactive: 3.52
13,CCC(C)[C@H]1O[C@]2(CC[C@@H]1C)C[C@@H]1C[C@@H](C/C=C(\C)[C@@H](OC3C[C@H](OC)C(O[C@H]4C[C@H](OC)[C@@H](O)[C@H](C)O4)[C@H](C)O3)[C@@H](C)/C=C/C=C3\CO[C@@H]4[C@H](O)C(C)=C[C@@H](C(=O)O1)[C@]34O)O2 (stereo partly drawn),active: -18
14,COCCCN1CCC(NC(=O)c2cc(Cl)c(N)c3c2OCC3)CC1 [Prucalopride],inactive: 1.84
15,CC(N)(C(=O)O)c1ccc(C(=O)O)cc1 (racemic) [(±)-alpha-Methyl-4-carboxyphenylglycine],inactive: 3.53
16,C[C@@H](O)[C@H]1C(=O)N2C(C(=O)O)=C(SCCNC=N)C[C@H]12 [Imipenem monohydrate],inactive: 1.89
17,CCc1cnn2c(NCc3ccc[n+]([O-])c3)cc(N3CCCC[C@H]3CCO)nc12,inactive: 1.27
18,N#Cc1ccc(C(c2ccc(C#N)cc2)n2cncn2)cc1,inactive: 1.27
19,CN(Cc1cnc2nc(N)nc(N)c2n1)c1ccc(C(=O)N[C@@H](CCC(=O)O)C(=O)O)cc1 [Methotrexate],inactive: 2.09
20,Nc1nc(N)c2nc(-c3cccc(O)c3)c(-c3cccc(O)c3)nc2n1,inactive: 2.1
21,CC(CN(C)C)CN1c2ccccc2CCc2ccccc21.O=C(O)/C=C\C(=O)O (stereo not drawn) [Trimipramine maleate],inactive: 0.258
